Results published in the supplement of paper PMC10849652.
The other results are listed elsewhere or left out.

Protein sequences, listed by entry. Tags and fused reporters are not part of them. Lines headed by an entry give the natural chain unless they say otherwise; changes in a name come on top.
UniProt Q9BSH5: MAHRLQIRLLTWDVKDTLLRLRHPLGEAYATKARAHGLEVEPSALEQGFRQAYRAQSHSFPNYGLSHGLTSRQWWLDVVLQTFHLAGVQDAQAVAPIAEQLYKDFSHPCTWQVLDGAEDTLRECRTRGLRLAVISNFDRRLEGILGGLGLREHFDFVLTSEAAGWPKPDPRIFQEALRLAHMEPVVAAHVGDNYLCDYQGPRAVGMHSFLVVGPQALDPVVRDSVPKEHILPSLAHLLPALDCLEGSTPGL
UniProt Q86XA9: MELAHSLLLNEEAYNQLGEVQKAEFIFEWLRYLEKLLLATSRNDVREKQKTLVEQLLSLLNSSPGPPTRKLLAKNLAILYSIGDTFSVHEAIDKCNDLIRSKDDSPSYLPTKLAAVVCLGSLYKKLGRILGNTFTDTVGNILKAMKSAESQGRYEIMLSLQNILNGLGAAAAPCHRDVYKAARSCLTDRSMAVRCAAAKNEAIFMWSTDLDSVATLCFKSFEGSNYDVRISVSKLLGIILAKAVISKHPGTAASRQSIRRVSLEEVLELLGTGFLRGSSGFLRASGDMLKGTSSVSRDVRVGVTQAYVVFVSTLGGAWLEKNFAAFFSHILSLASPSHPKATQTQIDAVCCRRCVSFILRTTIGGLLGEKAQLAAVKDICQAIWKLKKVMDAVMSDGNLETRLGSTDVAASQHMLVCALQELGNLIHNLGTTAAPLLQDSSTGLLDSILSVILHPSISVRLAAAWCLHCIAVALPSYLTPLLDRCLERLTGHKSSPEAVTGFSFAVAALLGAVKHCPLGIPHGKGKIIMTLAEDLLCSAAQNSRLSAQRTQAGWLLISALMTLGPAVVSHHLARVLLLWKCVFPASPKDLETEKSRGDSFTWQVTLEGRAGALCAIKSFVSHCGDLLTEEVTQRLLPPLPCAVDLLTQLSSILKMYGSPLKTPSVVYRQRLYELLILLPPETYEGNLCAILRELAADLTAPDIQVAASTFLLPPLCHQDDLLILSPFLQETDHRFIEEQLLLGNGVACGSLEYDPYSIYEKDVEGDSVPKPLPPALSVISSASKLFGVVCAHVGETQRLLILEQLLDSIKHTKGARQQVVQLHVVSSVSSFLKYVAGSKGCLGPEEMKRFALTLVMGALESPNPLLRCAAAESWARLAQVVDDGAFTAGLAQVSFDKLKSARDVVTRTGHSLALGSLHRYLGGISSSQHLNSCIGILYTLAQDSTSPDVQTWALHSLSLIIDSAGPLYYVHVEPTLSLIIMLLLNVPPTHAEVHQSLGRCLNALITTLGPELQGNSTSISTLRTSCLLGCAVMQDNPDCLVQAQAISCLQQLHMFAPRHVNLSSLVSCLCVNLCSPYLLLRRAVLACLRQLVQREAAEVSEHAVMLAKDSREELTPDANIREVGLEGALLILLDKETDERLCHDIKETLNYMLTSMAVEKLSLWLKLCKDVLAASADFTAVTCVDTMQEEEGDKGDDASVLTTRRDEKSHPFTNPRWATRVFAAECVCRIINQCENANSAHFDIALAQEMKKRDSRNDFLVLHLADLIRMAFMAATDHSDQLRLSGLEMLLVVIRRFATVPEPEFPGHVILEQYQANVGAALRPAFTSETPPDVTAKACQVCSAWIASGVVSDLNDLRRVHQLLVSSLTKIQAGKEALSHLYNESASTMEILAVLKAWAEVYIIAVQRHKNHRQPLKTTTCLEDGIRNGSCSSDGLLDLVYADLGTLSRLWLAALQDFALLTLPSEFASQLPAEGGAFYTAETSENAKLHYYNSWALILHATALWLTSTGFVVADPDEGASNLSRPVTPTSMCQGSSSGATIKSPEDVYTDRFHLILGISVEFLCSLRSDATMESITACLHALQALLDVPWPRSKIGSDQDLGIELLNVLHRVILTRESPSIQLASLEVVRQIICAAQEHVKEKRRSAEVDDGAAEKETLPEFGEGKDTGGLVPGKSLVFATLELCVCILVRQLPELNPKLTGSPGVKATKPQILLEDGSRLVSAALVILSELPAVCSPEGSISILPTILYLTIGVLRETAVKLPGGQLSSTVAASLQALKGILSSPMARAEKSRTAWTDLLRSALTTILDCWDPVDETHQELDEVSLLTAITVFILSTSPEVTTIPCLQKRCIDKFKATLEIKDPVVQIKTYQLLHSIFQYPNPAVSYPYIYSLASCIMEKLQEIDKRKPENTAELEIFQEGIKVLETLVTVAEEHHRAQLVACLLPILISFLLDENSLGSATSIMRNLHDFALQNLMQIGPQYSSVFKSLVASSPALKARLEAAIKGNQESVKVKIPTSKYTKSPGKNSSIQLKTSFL
UniProt Q9BT25: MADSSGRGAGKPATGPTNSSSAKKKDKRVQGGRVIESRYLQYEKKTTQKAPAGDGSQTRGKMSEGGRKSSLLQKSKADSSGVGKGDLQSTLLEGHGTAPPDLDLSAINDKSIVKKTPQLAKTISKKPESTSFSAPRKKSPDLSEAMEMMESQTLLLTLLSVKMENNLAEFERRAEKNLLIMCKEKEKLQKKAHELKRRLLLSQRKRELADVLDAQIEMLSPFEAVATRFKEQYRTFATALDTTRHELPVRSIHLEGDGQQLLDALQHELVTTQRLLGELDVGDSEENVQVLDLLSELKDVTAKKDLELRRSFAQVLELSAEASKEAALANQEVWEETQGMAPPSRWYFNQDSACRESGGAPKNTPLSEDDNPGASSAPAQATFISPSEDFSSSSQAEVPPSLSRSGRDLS
UniProt Q8IYU2: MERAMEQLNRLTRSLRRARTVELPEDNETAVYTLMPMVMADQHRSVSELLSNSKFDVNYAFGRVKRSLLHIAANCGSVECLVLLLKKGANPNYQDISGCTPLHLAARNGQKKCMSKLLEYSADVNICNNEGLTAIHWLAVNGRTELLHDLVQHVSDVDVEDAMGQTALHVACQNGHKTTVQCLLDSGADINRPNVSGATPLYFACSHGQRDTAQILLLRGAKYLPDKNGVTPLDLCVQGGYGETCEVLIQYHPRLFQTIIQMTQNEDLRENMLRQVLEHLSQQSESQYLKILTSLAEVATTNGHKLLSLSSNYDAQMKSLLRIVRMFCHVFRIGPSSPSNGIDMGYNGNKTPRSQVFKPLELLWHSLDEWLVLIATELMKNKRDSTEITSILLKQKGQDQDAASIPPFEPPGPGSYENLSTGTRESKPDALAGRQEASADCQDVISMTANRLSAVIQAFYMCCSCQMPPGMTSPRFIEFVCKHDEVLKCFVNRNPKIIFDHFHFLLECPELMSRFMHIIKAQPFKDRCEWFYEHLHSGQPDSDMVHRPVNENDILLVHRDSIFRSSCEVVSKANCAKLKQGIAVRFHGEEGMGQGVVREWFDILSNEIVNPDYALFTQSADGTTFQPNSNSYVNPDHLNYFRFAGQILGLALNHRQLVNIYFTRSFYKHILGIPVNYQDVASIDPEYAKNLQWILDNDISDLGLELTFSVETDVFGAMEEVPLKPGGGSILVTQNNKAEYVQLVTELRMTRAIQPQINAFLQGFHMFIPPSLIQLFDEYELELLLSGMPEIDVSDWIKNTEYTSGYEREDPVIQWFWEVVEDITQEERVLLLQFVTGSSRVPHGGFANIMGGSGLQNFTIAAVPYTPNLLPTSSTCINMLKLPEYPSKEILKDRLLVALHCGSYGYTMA
UniProt Q9UQL6: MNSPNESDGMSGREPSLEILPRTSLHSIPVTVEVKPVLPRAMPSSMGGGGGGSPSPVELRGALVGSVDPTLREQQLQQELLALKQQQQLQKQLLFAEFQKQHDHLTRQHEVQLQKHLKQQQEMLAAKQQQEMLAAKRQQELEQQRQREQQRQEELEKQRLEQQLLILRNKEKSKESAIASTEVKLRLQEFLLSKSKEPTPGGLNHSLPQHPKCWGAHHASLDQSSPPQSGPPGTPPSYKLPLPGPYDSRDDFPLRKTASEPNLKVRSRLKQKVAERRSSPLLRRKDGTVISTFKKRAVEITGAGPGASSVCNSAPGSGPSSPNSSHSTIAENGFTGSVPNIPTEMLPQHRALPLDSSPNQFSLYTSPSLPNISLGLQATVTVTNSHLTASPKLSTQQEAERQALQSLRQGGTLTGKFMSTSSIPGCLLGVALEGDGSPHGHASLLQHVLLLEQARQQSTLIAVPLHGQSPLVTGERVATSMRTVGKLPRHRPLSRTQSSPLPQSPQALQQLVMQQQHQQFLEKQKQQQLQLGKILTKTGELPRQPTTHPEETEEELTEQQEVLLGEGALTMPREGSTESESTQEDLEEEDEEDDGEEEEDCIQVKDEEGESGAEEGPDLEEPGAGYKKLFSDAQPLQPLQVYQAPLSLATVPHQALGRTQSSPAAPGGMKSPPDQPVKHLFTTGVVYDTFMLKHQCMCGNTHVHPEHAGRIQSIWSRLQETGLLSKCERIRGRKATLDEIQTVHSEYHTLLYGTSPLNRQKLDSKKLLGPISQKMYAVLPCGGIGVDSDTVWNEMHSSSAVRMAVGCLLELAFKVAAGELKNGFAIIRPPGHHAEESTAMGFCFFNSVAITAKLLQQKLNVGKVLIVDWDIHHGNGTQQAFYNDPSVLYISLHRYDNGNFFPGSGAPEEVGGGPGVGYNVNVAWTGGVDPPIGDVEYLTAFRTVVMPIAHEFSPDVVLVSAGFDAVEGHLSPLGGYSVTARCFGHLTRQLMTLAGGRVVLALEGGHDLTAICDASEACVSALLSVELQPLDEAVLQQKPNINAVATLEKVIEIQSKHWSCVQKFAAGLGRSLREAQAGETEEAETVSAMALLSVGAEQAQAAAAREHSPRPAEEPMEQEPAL
UniProt P35269, whole entry, looked up: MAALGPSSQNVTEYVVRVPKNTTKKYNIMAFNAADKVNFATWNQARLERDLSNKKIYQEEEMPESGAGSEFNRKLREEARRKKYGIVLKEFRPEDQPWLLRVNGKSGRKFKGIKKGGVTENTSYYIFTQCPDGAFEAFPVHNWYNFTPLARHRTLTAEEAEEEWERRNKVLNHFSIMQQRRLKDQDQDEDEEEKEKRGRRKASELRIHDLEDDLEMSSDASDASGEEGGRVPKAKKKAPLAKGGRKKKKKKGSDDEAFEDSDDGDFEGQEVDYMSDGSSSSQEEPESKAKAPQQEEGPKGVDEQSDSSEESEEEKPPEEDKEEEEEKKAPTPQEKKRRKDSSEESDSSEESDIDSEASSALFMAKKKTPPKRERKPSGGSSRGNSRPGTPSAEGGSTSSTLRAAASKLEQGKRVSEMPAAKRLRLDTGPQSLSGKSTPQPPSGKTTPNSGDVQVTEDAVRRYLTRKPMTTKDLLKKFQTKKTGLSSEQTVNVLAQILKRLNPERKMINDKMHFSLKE
UniProt P36969, whole entry, looked up: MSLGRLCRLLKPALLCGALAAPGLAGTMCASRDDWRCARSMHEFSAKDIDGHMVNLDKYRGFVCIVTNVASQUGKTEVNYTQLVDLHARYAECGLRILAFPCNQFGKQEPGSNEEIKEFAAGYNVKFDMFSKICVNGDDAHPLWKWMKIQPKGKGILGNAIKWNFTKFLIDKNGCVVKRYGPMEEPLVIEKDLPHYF
UniProt Q8TAA5: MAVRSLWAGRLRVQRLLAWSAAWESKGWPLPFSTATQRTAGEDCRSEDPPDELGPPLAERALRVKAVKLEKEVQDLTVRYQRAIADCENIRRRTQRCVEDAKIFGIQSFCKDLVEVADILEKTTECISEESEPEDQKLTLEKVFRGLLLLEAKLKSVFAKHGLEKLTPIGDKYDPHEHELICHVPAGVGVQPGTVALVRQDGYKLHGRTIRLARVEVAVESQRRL
UniProt Q9H0R4: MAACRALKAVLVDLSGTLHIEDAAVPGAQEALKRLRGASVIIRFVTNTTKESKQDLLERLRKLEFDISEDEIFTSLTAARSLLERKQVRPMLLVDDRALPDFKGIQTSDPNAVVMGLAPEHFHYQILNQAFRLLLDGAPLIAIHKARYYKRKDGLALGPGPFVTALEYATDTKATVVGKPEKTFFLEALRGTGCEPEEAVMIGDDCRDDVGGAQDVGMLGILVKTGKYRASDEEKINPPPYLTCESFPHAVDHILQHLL
UniProt Q9Y3E1: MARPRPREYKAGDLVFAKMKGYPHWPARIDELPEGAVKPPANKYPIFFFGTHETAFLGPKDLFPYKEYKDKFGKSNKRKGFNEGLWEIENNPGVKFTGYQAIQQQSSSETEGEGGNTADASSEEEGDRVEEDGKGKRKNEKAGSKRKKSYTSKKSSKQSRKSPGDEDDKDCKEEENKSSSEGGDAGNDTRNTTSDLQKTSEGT
UniProt Q96CS2: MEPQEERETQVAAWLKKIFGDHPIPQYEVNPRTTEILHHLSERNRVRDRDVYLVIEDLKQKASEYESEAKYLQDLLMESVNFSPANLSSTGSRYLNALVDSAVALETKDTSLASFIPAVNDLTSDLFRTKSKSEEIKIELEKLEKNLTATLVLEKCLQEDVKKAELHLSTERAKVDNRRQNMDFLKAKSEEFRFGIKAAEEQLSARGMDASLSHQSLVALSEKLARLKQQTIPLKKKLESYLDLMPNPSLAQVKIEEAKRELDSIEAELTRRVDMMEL

How the values were obtained:
Assay in all cases: log2 fold change, soluble protein after heating vs DMSO (PISA); higher = thermal stabilisation; K562 lysate, 10 uM; active = over 0.2 and 3.5 SD of the protein, either way, in both replicates (recomputed)
lapatinib = compound: CS(=O)(=O)CCNCc1ccc(-c2ccc3ncnc(Nc4ccc(OCc5cccc(F)c5)c(Cl)c4)c3c2)o1 [lapatinib]
In short: (§1)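 Quantification was by TMTpro 16plex LC-MS/MS with equalised channel sums, applied to the supernatant after 21,000xg for 90 min. Samples were crude K562 extract at 1 mg/mL protein in PBS pH 7.4 with 1 mM MgCl2, treated with 10 μM compound for 30 min, heated for 3 min across 48°C-58°C, pooled and brought to 0.5% NP-40 at 4°C. Values are log-two fold changes in thermal stability relative to solvent controls, from duplicates.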

pictilisib = compound: CS(=O)(=O)N1CCN(Cc2cc3nc(-c4cccc5[nH]ncc45)nc(N4CCOCC4)c3s2)CC1 [pictilisib]
In short: as §1

crizotinib = compound: C[C@@H](Oc1cc(-c2cnn(C3CCNCC3)c2)cnc1N)c1c(Cl)ccc(F)c1Cl [crizotinib]
In short: as §1

[1] = compound: C[C@H](C1=CC=C(C=C1)C(=O)NC2=C3C=CNC3=NC=C2)N
In short: as §1

duvelisib = compound: C[C@H](Nc1ncnc2nc[nH]c12)c1cc2cccc(Cl)c2c(=O)n1-c1ccccc1 [duvelisib]
In short: as §1

gandotinib = compound: Cc1cc(Nc2cc(CN3CCOCC3)c3nc(C)c(Cc4ccc(Cl)cc4F)n3n2)n[nH]1 [gandotinib]
In short: as §1

tozasertib = compound: Cc1cc(Nc2cc(N3CCN(C)CC3)nc(Sc3ccc(NC(=O)C4CC4)cc3)n2)n[nH]1 [tozasertib]
In short: as §1

doramapimod = compound: Cc1ccc(-n2nc(C(C)(C)C)cc2NC(=O)Nc2ccc(OCCN3CCOCC3)c3ccccc23)cc1 [doramapimod]
In short: as §1

bafetinib = compound: Cc1ccc(NC(=O)c2ccc(CN3CC[C@H](N(C)C)C3)c(C(F)(F)F)c2)cc1Nc1nccc(-c2cncnc2)n1 [bafetinib]
In short: as §1

[2] = compound: Cc1cccc(CC(=O)N2CCc3c2ccc(-c2cn(C)c4ncnc(N)c24)c3F)n1
In short: as §1

nilotinib = compound: Cc1cn(-c2cc(NC(=O)c3ccc(C)c(Nc4nccc(-c5cccnc5)n4)c3)cc(C(F)(F)F)c2)cn1 [nilotinib]
In short: as §1

[3] = compound: Cc1nc(Nc2n[nH]c3c2CN(C(=O)N[C@H](CN(C)C)c2ccccc2)C3(C)C)c2sccc2n1
In short: as §1

dasatinib = compound: Cc1nc(Nc2ncc(C(=O)Nc3c(C)cccc3Cl)s2)cc(N2CCN(CCO)CC2)n1 [dasatinib]
In short: as §1

[4] = compound: Cc1ncc(-c2ccnc(Nc3ccc(S(C)(=O)=O)cc3)n2)n1C(C)C
In short: as §1

[5] = compound: Cn1cc(-c2ccc3c(c2)CCN3C(=O)Cc2cccc(C(F)(F)F)c2)c2c(N)ncnc21
In short: as §1

quisinostat = compound: Cn1cc(CNCC2CCN(c3ncc(C(=O)NO)cn3)CC2)c2ccccc21 [quisinostat]
In short: as §1

tipifarnib = compound: Cn1cncc1[C@@](N)(c1ccc(Cl)cc1)c1ccc2c(c1)c(-c1cccc(Cl)c1)cc(=O)n2C [tipifarnib]
In short: as §1

[6] = compound: NC(=O)Nc1cc(-c2cccc(F)c2)sc1C(=O)N[C@H]1CCCNC1
In short: as §1

[7] = compound: NC(=O)c1cnc(N[C@@H]2CCCC[C@@H]2N)nc1Nc1cccc(-n2nccn2)c1
In short: as §1

[8] = compound: NC1(c2ccc(-c3nc4ccn5c(=O)[nH]nc5c4cc3-c3ccccc3)cc2)CCC1
In short: as §1

Measured: log2 fold change

HAUS2 (UniProt Q9NVX0)
inactive: lapatinib -0.033 | pictilisib -0.187 | crizotinib -0.055 | [1] 0.167 | duvelisib 0.049 | gandotinib -0.159 | tozasertib 0.067 | doramapimod -0.047 | bafetinib 0.005 | [2] -0.017 | nilotinib 0.036 | [3] -0.033 | dasatinib -0.028 | [4] 0.069 | [5] 0.05 | quisinostat -0.04 | tipifarnib -0.034 | [6] -0.014 | [7] -0.094 | [8] 0.037

GTPBP3 isoform 2 (UniProt Q969Y2)
inactive: lapatinib -0.028 | pictilisib 0.047 | crizotinib -0.14 | [1] 0.052 | duvelisib -0.063 | gandotinib 0.143 | tozasertib 0.034 | doramapimod 0.032 | bafetinib -0.013 | [2] 0.182 | nilotinib 0.057 | [3] -0.083 | dasatinib 0.03 | [4] 0.065 | [5] -0.002 | quisinostat -0.105 | tipifarnib 0.006 | [6] 0.033 | [7] -0.02 | [8] -0.089

H1-4 (UniProt P10412)
inactive: lapatinib 0.005 | pictilisib -0.007 | crizotinib 0.022 | [1] -0.15 | duvelisib -0.014 | gandotinib 0.033 | tozasertib -0.117 | doramapimod -0.009 | bafetinib -0.021 | [2] -0.001 | nilotinib -0.044 | [3] 0.019 | dasatinib -0.022 | [4] -0.028 | [5] -0.025 | quisinostat -0.001 | tipifarnib -0.057 | [6] -0.02 | [7] -0.06 | [8] -0.072

HDHD3 (UniProt Q9BSH5)
inactive: lapatinib -0.012 | pictilisib -0.041 | crizotinib -0.037 | [1] 0.034 | duvelisib -0.016 | gandotinib -0.023 | tozasertib 0.12 | doramapimod 0.017 | bafetinib 0.038 | [2] -0.032 | nilotinib 0.036 | [3] 0.04 | dasatinib -0.011 | [4] -0.022 | [5] 0.027 | quisinostat -0.058 | tipifarnib 0.021 | [6] -0.021 | [7] 0.013 | [8] -0.032

HDGFL2 isoform 2 (UniProt Q7Z4V5)
inactive: lapatinib 0.02 | pictilisib 0.027 | crizotinib -0.028 | duvelisib 0.037 | tozasertib 0.018 | doramapimod -0.003 | bafetinib 0 | [2] 0.167 | nilotinib -0.005 | [3] -0.005 | dasatinib 0.014 | [4] -0.021 | [5] -0.023 | quisinostat -0.061 | tipifarnib 0.003 | [6] 0.011 | [7] -0.001 | [8] -0.02
active: [1] -0.348 | gandotinib 0.248

HEATR5A (UniProt Q86XA9)
inactive: lapatinib 0.001 | pictilisib -0.058 | crizotinib -0.023 | [1] 0.022 | duvelisib -0.008 | gandotinib -0.023 | tozasertib 0.012 | doramapimod 0 | bafetinib 0.03 | [2] -0.004 | nilotinib 0.005 | [3] 0.029 | dasatinib 0.018 | [4] 0.004 | [5] 0 | quisinostat 0.031 | tipifarnib -0.048 | [6] 0.024 | [7] 0.012 | [8] -0.033

HAUS8 (UniProt Q9BT25)
inactive: lapatinib -0.022 | pictilisib -0.02 | crizotinib -0.055 | [1] 0.057 | duvelisib -0.075 | gandotinib 0.045 | tozasertib 0.027 | doramapimod -0.007 | bafetinib -0.037 | [2] 0.027 | nilotinib 0.025 | [3] 0.026 | dasatinib -0.073 | [4] 0.005 | [5] 0.015 | quisinostat -0.085 | tipifarnib 0.004 | [6] 0.042 | [7] 0.02 | [8] 0.006

UniProt H0YHG0
inactive: lapatinib 0.028 | pictilisib 0.017 | crizotinib 0.027 | [1] -0.104 | duvelisib 0.024 | gandotinib 0.08 | tozasertib -0.002 | doramapimod 0.004 | bafetinib -0.012 | [2] 0.031 | nilotinib 0.004 | [3] 0.026 | dasatinib 0.035 | [4] 0.004 | [5] -0.003 | quisinostat 0.005 | tipifarnib 0.022 | [6] -0.022 | [7] -0.006 | [8] 0.006

HACE1 (UniProt Q8IYU2)
active: [1] -0.491
inactive: lapatinib -0.05 | pictilisib 0.005 | crizotinib 0.026 | duvelisib 0.033 | gandotinib 0.302 | tozasertib -0.036 | doramapimod 0.015 | bafetinib -0.036 | [2] 0.426 | nilotinib -0.027 | [3] 0.043 | dasatinib -0.154 | [4] 0.035 | [5] -0.084 | quisinostat 0.061 | tipifarnib -0.175 | [6] 0.181 | [7] 0.028 | [8] -0.02

2 successive entries already listed, quoted:
UniProt H0YHG0
inactive: lapatinib 0.028 | pictilisib 0.017 | crizotinib 0.027 | [1] -0.104 | duvelisib 0.024 | gandotinib 0.08 | tozasertib -0.002 | doramapimod 0.004 | bafetinib -0.012 | [2] 0.031 | nilotinib 0.004 | [3] 0.026 | dasatinib 0.035 | [4] 0.004 | [5] -0.003 | quisinostat 0.005 | tipifarnib 0.022 | [6] -0.022 | [7] -0.006 | [8] 0.006

HACE1 (UniProt Q8IYU2)
active: [1] -0.491
inactive: lapatinib -0.05 | pictilisib 0.005 | crizotinib 0.026 | duvelisib 0.033 | gandotinib 0.302 | tozasertib -0.036 | doramapimod 0.015 | bafetinib -0.036 | [2] 0.426 | nilotinib -0.027 | [3] 0.043 | dasatinib -0.154 | [4] 0.035 | [5] -0.084 | quisinostat 0.061 | tipifarnib -0.175 | [6] 0.181 | [7] 0.028 | [8] -0.02

(next part)

HDAC5 isoform 3 (UniProt Q9UQL6)
inactive: lapatinib -0.065 | pictilisib 0.013 | crizotinib -0.046 | [1] -0.062 | duvelisib 0.056 | gandotinib 0.008 | tozasertib 0.025 | doramapimod 0.038 | bafetinib -0.021 | [2] 0.005 | nilotinib -0.058 | [3] -0.008 | dasatinib -0.015 | [4] -0.12 | [5] 0.064 | quisinostat -0.029 | tipifarnib -0.012 | [6] 0.017 | [7] -0.056 | [8] 0.033

GTF2F1 (UniProt P35269)
inactive: lapatinib -0.002 | pictilisib -0.004 | crizotinib 0.01 | [1] -0.12 | duvelisib -0.009 | gandotinib 0.09 | tozasertib -0.012 | doramapimod -0.046 | bafetinib 0.026 | [2] 0.027 | nilotinib 0.013 | [3] -0.032 | dasatinib 0.046 | [4] -0.02 | [5] -0.024 | quisinostat 0.029 | tipifarnib 0.005 | [6] -0.021 | [7] -0.005 | [8] 0.017

GPX4 (UniProt P36969)
inactive: lapatinib -0.037 | pictilisib -0.03 | crizotinib -0.01 | [1] 0.041 | duvelisib -0.008 | gandotinib -0.065 | tozasertib 0 | doramapimod -0.001 | bafetinib -0.033 | [2] -0.051 | nilotinib -0.011 | [3] -0.001 | dasatinib 0.01 | [4] 0.039 | [5] -0.024 | quisinostat -0.012 | tipifarnib -0.009 | [6] 0.02 | [7] -0.011 | [8] 0.011

GRPEL2 (UniProt Q8TAA5)
inactive: lapatinib -0.042 | pictilisib -0.023 | crizotinib 0.007 | [1] -0.198 | duvelisib 0.026 | gandotinib 0.019 | tozasertib -0.092 | doramapimod -0.024 | bafetinib -0.071 | [2] 0.077 | nilotinib 0.033 | [3] 0.035 | dasatinib 0.025 | [4] -0.09 | [5] 0.024 | quisinostat -0.037 | tipifarnib -0.104 | [6] 0.031 | [7] 0.213 | [8] 0.039

HDHD2 (UniProt Q9H0R4)
inactive: lapatinib -0.019 | pictilisib -0.023 | crizotinib 0.025 | [1] 0.017 | duvelisib 0.043 | gandotinib 0.017 | tozasertib 0.053 | doramapimod 0.004 | bafetinib 0.059 | [2] -0.042 | nilotinib 0.047 | [3] -0.052 | dasatinib 0.031 | [4] 0.035 | [5] 0.014 | quisinostat 0.032 | tipifarnib 0.004 | [6] 0 | [7] -0.013 | [8] 0.05

HDGFL3 (UniProt Q9Y3E1)
inactive: lapatinib -0.028 | pictilisib 0.008 | crizotinib 0.04 | [1] -0.026 | duvelisib 0.014 | gandotinib 0.031 | tozasertib -0.016 | doramapimod 0.007 | bafetinib 0.058 | [2] -0.055 | nilotinib 0.021 | [3] -0.016 | dasatinib 0.022 | [4] 0.046 | [5] 0.002 | quisinostat -0.039 | tipifarnib 0.025 | [6] 0.04 | [7] -0.015 | [8] -0.006

HAUS1 (UniProt Q96CS2)
inactive: lapatinib 0.022 | pictilisib -0.068 | crizotinib -0.001 | [1] 0.034 | duvelisib 0.009 | gandotinib 0.019 | tozasertib -0.027 | doramapimod -0.017 | bafetinib -0.051 | [2] -0.051 | nilotinib 0.013 | [3] -0.012 | dasatinib -0.009 | [4] -0.01 | [5] -0.004 | quisinostat -0.05 | tipifarnib -0.011 | [6] 0.001 | [7] -0.016 | [8] -0.006
